PubChem BioAssay AID686938 – Drosophila RNAi Screening Center – 2013
The screen tested about 23,000 reagents; below is a random part of those with a known target gene and a result. Of all reagents, 75 (0.33%) got an active call. 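Raw plate signals without normalisation; calls rest on plate z-scores that were not deposited; ratio present for only 364 wells.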 A number with no mark means an inactive call. Names joined by + are all predicted targets of the reagent. Not stated in the record: the dose of the treatment.

Aim: 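Knock-downs reducing store-operated calcium influx in Drosophila cells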 (primary screen)
Cell system: Drosophila S2R+ cells
Reagent: long dsRNA against Drosophila genes, about 0.25 µg dsRNA per well, roughly 10,000 cells
Duration: 5 days of knock-down before the calcium assay
Challenge: thapsigargin (SERCA pump blocker) to empty calcium stores; entry signal taken 4 min after adding it
Measured: 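Duplicate raw fluo-4 intensities per well from a plate reader, at rest and four minutes after thapsigargin emptied calcium stores; entry-to-rest ratio filled for only some wells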
Reading the numbers: calcium entry signal: higher = stronger calcium signal after store depletion; resting calcium signal: higher = higher resting calcium signal
Units: calcium entry signal in fluorescence units; resting calcium signal in fluorescence units
Call rule: 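Hit if the duplicate-averaged plate z-score for entry over resting signal is under −3; wells with weak total dye signal (Fmax z < −2) or more than 5 off-targets removed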
Meaning of the calls: active = strongly reduced calcium entry; inactive = no strong reduction

With knock-down of CG15878 [DRSC08486], the screen gave calcium entry signal, replicate 1 = 2.42e7; calcium entry signal, replicate 2 = 2.70e7; resting calcium signal, replicate 1 = 1.25e7; resting calcium signal, replicate 2 = 1.31e7.
Against FIG4 (FIG4 phosphoinositide 5-phosphatase) [DRSC00515], the values are calcium entry signal, replicate 1 = 3.70e7; resting calcium signal, replicate 1 = 1.72e7.
For CG11089 + CG31381 [DRSC13690], the values are calcium entry signal, replicate 1 = 3.87e7; calcium entry signal, replicate 2 = 3.31e7; resting calcium signal, replicate 1 = 1.87e7; resting calcium signal, replicate 2 = 1.73e7.
After knock-down of CG11089 + CG31381 [DRSC14290], the screen gave calcium entry signal, replicate 1 = 4.93e7; calcium entry signal, replicate 2 = 4.22e7; resting calcium signal, replicate 1 = 2.38e7; resting calcium signal, replicate 2 = 1.95e7.
Knock-down of CG2747 [DRSC15450] resulted in: calcium entry signal, replicate 1 = 5.50e7; calcium entry signal, replicate 2 = 3.55e7; resting calcium signal, replicate 1 = 2.52e7; resting calcium signal, replicate 2 = 1.62e7.
Knock-down of CG13511 [DRSC04153] gave: calcium entry signal, replicate 1 = 3.36e7; calcium entry signal, replicate 2 = 3.30e7; resting calcium signal, replicate 1 = 1.68e7; resting calcium signal, replicate 2 = 1.59e7.
Against IntS3 (Integrator 3) [DRSC21215], the values are calcium entry signal, replicate 1 = 4.10e7; calcium entry signal, replicate 2 = 4.49e7; resting calcium signal, replicate 1 = 2.17e7; resting calcium signal, replicate 2 = 2.03e7.
For Smg6 [DRSC16029], the values are calcium entry signal, replicate 1 = 4.46e7; calcium entry signal, replicate 2 = 4.36e7; resting calcium signal, replicate 1 = 2.02e7; resting calcium signal, replicate 2 = 1.83e7.
Depletion of CG10462 [DRSC02058] resulted in: calcium entry signal, replicate 1 = 4.71e7; resting calcium signal, replicate 1 = 2.53e7.
ArfGAP3 (ADP-ribosylation factor GTPase activating protein 3) [DRSC11794] scored calcium entry signal, replicate 1 = 3.17e7; calcium entry signal, replicate 2 = 4.76e7; resting calcium signal, replicate 1 = 1.63e7; resting calcium signal, replicate 2 = 3.30e7.
CG1812 [DRSC20557] showed calcium entry signal, replicate 1 = 2.60e7; calcium entry signal, replicate 2 = 3.08e7; resting calcium signal, replicate 1 = 1.24e7; resting calcium signal, replicate 2 = 1.27e7.
After knock-down of bonsai [DRSC04453], the record shows calcium entry signal, replicate 1 = 4.08e7; calcium entry signal, replicate 2 = 3.84e7; resting calcium signal, replicate 1 = 2.04e7; resting calcium signal, replicate 2 = 1.66e7.
Rcd-1 (Required for cell differentiation 1) [DRSC19569] gave calcium entry signal, replicate 1 = 3.62e7; calcium entry signal, replicate 2 = 3.21e7; resting calcium signal, replicate 1 = 1.95e7; resting calcium signal, replicate 2 = 1.56e7.
Silencing of ball (ballchen) [DRSC14145] resulted in: calcium entry signal, replicate 1 = 2.99e7; calcium entry signal, replicate 2 = 3.56e7; resting calcium signal, replicate 1 = 1.69e7; resting calcium signal, replicate 2 = 2.00e7.

2 entries already listed, ordered by “calcium entry signal, replicate 1”, highest first.
CG2747 [DRSC15450] — calcium entry signal, replicate 1: 5.50e7; calcium entry signal, replicate 2: 3.55e7; resting calcium signal, replicate 1: 2.52e7; resting calcium signal, replicate 2: 1.62e7
CG11089 + CG31381 [DRSC14290] — calcium entry signal, replicate 1: 4.93e7; calcium entry signal, replicate 2: 4.22e7; resting calcium signal, replicate 1: 2.38e7; resting calcium signal, replicate 2: 1.95e7
